From patent US20110152352A1
Results are given in words; binding and its absence hold for the method and conditions named. For some assays here: Binding seen in cells or lysates may run through a third protein. Some results given as binding are weak or reduced against the parent protein; the word gives no strength.

The chains behind the UniProt entries cited, without tags or fusion partners. Where a name states a change or a piece, a line headed by the entry shows the natural chain unless it says otherwise. Residues count along the entry.
UniProt P17844: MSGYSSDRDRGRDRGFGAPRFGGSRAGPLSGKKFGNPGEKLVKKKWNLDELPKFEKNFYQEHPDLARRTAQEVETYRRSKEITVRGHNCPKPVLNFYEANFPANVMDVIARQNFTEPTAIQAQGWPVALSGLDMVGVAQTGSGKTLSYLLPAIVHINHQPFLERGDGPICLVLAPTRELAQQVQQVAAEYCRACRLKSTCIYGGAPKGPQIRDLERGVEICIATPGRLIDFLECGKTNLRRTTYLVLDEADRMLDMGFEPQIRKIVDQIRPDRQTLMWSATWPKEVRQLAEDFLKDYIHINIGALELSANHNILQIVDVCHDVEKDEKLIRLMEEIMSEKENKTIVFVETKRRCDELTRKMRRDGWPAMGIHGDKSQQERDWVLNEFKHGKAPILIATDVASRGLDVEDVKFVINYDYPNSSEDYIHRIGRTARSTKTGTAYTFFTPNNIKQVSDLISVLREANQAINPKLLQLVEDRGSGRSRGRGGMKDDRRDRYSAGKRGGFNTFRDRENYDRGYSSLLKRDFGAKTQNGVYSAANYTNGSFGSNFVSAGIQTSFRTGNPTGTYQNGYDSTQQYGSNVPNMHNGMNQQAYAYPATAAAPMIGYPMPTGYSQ
UniProt Q15797: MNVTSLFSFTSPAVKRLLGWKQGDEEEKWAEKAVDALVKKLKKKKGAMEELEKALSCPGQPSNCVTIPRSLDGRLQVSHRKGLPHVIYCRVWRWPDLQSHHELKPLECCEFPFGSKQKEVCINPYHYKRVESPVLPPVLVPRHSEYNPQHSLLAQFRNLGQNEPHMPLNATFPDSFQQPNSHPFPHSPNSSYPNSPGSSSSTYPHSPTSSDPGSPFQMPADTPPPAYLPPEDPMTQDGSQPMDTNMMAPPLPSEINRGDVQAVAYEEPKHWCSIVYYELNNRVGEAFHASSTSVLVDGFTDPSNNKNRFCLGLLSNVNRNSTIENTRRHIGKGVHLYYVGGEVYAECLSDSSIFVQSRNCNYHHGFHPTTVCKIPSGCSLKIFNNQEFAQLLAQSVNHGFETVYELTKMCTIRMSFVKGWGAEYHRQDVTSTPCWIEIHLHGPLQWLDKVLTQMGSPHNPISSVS
UniProt Q99717, residues 2-465: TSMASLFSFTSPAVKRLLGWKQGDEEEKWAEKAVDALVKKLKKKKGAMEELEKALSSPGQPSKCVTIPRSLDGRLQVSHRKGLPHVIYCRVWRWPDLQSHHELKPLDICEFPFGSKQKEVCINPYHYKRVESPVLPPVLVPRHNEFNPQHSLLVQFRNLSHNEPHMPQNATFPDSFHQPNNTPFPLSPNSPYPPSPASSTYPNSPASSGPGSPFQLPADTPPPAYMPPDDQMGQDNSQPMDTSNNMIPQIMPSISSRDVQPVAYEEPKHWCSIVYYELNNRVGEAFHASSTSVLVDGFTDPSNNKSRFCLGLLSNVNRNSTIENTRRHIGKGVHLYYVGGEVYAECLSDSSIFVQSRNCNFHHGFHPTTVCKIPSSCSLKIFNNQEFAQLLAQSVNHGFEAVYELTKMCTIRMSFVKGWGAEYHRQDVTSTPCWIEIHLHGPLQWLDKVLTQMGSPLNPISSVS

Assays:
[1] = molecular target: p68 (endogenous, human PASMC nuclear extracts) (human) (UniProt P17844); assay: co-immunoprecipitation with anti-p68 from nuclear extracts of BMP4-treated PASMCs, immunoblot with anti-Smad1/5
[2] = molecular target: RNA helicase p68 (human p68 cDNA construct, expressed in transfected Cos7 cells) (human) (UniProt P17844); assay: GST pull-down from nuclear extracts of p68-transfected Cos7 cells, immunoblot with anti-p68
[3] = molecular target: RNA helicase p68 (human p68 cDNA construct, expressed in transfected Cos7 cells) (human) (UniProt P17844); assay: GST pull-down from nuclear extracts of p68-transfected Cos7 cells
[4] = molecular target: T1, DGCR8 (UniProt Q8WYQ5); assay: GST-Smad1 interaction assay, unpublished observation, conditions not described
T1 sequence (looked up): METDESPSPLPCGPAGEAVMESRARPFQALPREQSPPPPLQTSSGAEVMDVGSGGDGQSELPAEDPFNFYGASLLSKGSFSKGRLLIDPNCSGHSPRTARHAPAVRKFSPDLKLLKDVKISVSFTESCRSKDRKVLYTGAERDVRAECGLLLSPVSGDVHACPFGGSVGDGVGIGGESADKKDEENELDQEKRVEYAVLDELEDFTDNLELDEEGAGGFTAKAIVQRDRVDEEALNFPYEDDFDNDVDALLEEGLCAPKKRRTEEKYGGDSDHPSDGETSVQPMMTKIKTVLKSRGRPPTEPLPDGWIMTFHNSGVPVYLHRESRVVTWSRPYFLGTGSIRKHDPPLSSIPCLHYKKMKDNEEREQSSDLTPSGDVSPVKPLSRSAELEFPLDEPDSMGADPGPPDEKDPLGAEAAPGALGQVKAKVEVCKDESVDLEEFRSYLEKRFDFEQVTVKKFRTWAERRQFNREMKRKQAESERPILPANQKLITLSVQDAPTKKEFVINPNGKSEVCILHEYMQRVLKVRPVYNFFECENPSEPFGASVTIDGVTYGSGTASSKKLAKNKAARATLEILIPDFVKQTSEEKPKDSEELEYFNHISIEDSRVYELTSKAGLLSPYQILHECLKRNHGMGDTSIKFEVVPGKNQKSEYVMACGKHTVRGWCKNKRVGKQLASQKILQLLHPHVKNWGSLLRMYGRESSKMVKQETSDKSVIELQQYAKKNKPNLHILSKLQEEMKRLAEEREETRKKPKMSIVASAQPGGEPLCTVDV

[5] = molecular target: RNA helicase p68 (human p68 cDNA construct, expressed in transfected Cos7 cells) (human) (UniProt P17844); assay: GST pull-down from RNase A-treated (250 µg/ml) nuclear extracts of p68-transfected Cos7 cells, immunoblot with anti-p68

| Substance | binding [1] | binding [2] | binding [3] | binding [4] | binding [5] |
| --- | --- | --- | --- | --- | --- |
| Smad1 (endogenous, human PASMC nuclear extracts, detected with anti-Smad1/5 antibody) (from UniProt Q15797 1-465) | binds | – | – | – | – |
| GST-Smad1 full length (FL) fusion protein (from UniProt P08515 1-218; Q15797 1-465) | – | binds | binds | binds | binds |
| GST-Smad3(FL) fusion protein (from UniProt P08515 1-218; P84022 2-425) | – | binds | binds | – | – |

More lines, now with the values ahead:

| binding [1] | binding [2] | binding [3] | binding [4] | binding [5] | Substance |
| --- | --- | --- | --- | --- | --- |
| – | binds | – | – | – | GST-Smad1 (MH2 domain) fusion protein (from UniProt Q15797 271-465) |
| – | binds | binds | – | binds | GST-Smad5 full length fusion protein (from UniProt Q99717 2-465) |
